Results as given in patent US20030226169A1, “DNA sequences encoding antifungal proteins” (priority 1995, published 2003).
Some of these results come from one statement about several compounds together.

System: Ascophyta pisi (MUCL 30164)
Format: cell-based
Settings: Table 6: Rs-AFP1-based 9-mer split peptides; ½ PDB; the source numbers peptides by N-terminal amino acid
Procedure: The following fungal strains were used: Alternaria brassicicola (MUCL 20297), Ascophyta pisi (MUCL 30164), Botrytis cinerea (MUCL 30158), Fusarium culmorum (IMI 180420) and Verticillium dahliae (MUCL 19210).
Fungi were grown on six cereal agar plates at room temperature and under white fluorescent light except for F culmorum and V dahliae which were grown in the dark. The duration of the spore harvest varied between 10 and 25 days depending on the strain. Spores were collected as follows. Five to ten ml of sterile milli-Q water was poured into each dish and the surface of the agar was rubbed with a sterile spatula to obtain a suspension containing mycelium and spores. […] The spore density was determined in a counting chamber and then adjusted to 4×10^7 spores per ml. […]
Antifungal activity was measured by photospectrometry as described by Broekaert et al, (1990, FEMS Microbiol Lett, 69:55-60). […]
After 30 minutes of incubation (when the spores are settled on the well bottom) the optical density was measured in a microplate reader (Bio Rad 3550-UV) at 595 nm. […] Percentage of growth inhibition (% GI) was estimated as 100 times the ratio of the corrected absorbance of the control microculture minus the corrected absorbance of the test microculture over the corrected absorbance of the control microculture at 595 nm. […]

## Ac-FPAHKC-NH2 [compound 40]
  A PISI IC: less than 100 μg/ml
